Data reported in PubChem BioAssay AID493014 (National Center for Advancing Translational Sciences (NCATS), 2011).
“And” between values parts separate entries of the source, which are not always exact repeats. Equal entries are not always repeated. The list shows a part of the results. The main result of the screen is listed elsewhere. These columns were measured beside it and carry no call. The list favours compounds with an active or inconclusive main result. Words in brackets tell the shape of the fitted curve; partial curves, single points and poor fits give uncertain potencies.

Test: qHTS Assay to Find Inhibitors of Chronic Active B-Cell Receptor Signaling
Details: ABC-DLBCL IkBa-CBG/CBR reporter, luminescence ratio (green luciferase fused to IkBa over red control in TMD8 lymphoma cells), 4 h
Summary of the method: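 Concentration-response series (up to 46 uM) were applied to TMD8 dual-reporter cells for 4 h at 37C with doxycycline. Green/red ratio, after filter-overlap correction, defined %Activity; red signal alone was normalised to basal cells and zero luminescence.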

[1] = measured here: CBR red luminescence, cell number
[2] = measured here: IkBa-CBG green luminescence

SMILES: Cc1c(C#N)c(N=CN(C)C)c(C(=O)c2ccc(Br)cc2)n1-c1ccccc1
- AC50 [1]: 1.64 µM [rising, single point]

SMILES: O=c1c(Cc2ccccc2)c(O)c2cccc3c4c(n1c23)CCCC4
- AC50 [1]: 12.6 µM [falling, partial curve, poor fit]

SMILES: Cn1ncc(C(=O)Nc2ccc(Cl)cc2)c1C(F)(F)F
- AC50 [1]: 15.8 µM [falling, single point]

SMILES: Cc1ccc(C2=NN(C(=O)CCC(=O)O)C(c3cccc([N+](=O)[O-])c3)C2)cc1 (stereo not given)
- AC50 [1]: 35.5 µM [falling, partial curve, poor fit]

SMILES: CCn1c(SCC(=O)Nc2nccs2)nnc1-c1ccc(C)cc1
- AC50 [1]: 10.3 µM [falling, partial curve]

SMILES: C/C(=N\Nc1cccc2cccnc12)c1ccc(C)cc1
- AC50 [1]: 35.5 µM [falling, single point]

SMILES: COc1ccccc1C(=O)COC(=O)C1(C)CC1(Cl)Cl (stereo not given)
- AC50 [1]: 13 µM [rising, partial curve, poor fit]

SMILES: COc1ccccc1-c1cc(C(=O)NCCc2ccccc2)no1
- AC50 [1]: 16.4 µM [falling, partial curve]
- AC50 [2]: 20.6 µM [falling, partial curve, poor fit]

SMILES: Nc1nc(=S)c2ncn(C3CCCC3)c2[nH]1
- AC50 [1]: 0.501 µM [falling, full curve, poor fit]

SMILES: COc1ccc(C(=O)CC(=O)C(=O)Nc2c(C)cccc2C)cc1
- AC50 [1]: 22.4 µM [rising, single point]

SMILES: CN(CC(=O)O/N=C(\N)c1cccc([N+](=O)[O-])c1)S(=O)(=O)c1ccccc1
- AC50 [1]: 29.1 µM [rising, single point]

SMILES: CC(C)(C)c1nnc(NC(=O)Nc2ccc(Cl)cc2)s1
- AC50 [1]: 35.5 µM [rising, single point]

SMILES: ClC(/C=N/n1cnnc1)=C/c1ccccc1
- AC50 [1]: 35.5 µM [falling, single point]

SMILES: O=c1[nH]c(C2CCN(S(=O)(=O)c3ccc(C(F)(F)F)cc3)CC2)nc2c1nnn2Cc1ccc(F)cc1
- AC50 [1]: 35.5 µM [falling, single point]

SMILES: CN(Cc1nc(-c2cccs2)no1)CC(O)c1ccccc1 (stereo not given)
- AC50 [1]: 11.2 µM [falling, partial curve, poor fit]

SMILES: O=C(NNC(=O)c1ccccc1-n1cccc1)c1ccc(F)cc1
- AC50 [1]: 10 µM [rising, partial curve, poor fit]

SMILES: Fc1nc(N2CCCC2)c(F)c(Oc2ccccc2Oc2c(F)c(F)nc(N3CCCC3)c2F)c1F
- AC50 [1]: 22.4 µM [falling, single point]

SMILES: CN1C(=O)S/C(=C/c2ccc(OCc3cccc(C(=O)O)c3)cc2)C1=O
- AC50 [1]: 17.8 µM [falling, partial curve, poor fit]

SMILES: COc1ccc(SC[C@H](Cc2ccccc2)N2CCN(CCc3ccccc3)CCC2=O)cc1
- AC50 [1]: 35.5 µM [falling, single point]

SMILES: O=C1OC(c2ccc(F)cc2)=C/C1=C\c1ccc([N+](=O)[O-])o1
- AC50 [1]: 22.4 µM [falling, partial curve, poor fit]

SMILES: CC(C)CC(=O)N1CCN(S(=O)(=O)c2ccc3ccccc3c2)CC1
- AC50 [1]: 23.1 µM [falling, partial curve, poor fit]

SMILES: Cn1c(=O)n(C)c2cc(NC(=O)c3cc4ccccc4o3)ccc21
- AC50 [1]: 29.1 µM [falling, single point]

SMILES: Cn1c(=O)[nH]c(=O)c2c1nc(SCCN1CCOCC1)n2CCCc1ccccc1
- AC50 [1]: 2.06 µM [rising, single point]

SMILES: Cc1ccc2ccc3cccc4ccc1c2c34
- AC50 [1]: 14.6 µM [rising, partial curve]

SMILES: S=c1[nH]nc(-c2ccncc2)n1/N=C/C(Cl)=C\c1ccccc1
- AC50 [1]: 14.1 µM [falling, partial curve]
- AC50 [2]: 25.1 µM [falling, single point]

SMILES: COC(=O)c1ccc(C(=S)NCC2(N(C)C)CCCCC2)cc1
- AC50 [1]: 35.5 µM [falling, partial curve, poor fit]

SMILES: O=C1c2ccccc2C(=O)N1c1cccc2cccnc12
- AC50 [1]: 18.4 µM [rising, partial curve, poor fit]

SMILES: CC(=O)n1nc(-c2ccccc2)nc1NCc1cccs1
- AC50 [1]: 10 µM [falling, partial curve]

SMILES: CCN(CC)c1ccc(NC(=O)CN2CCN(S(=O)(=O)c3cc(Cl)ccc3OC)CC2)cc1
- AC50 [1]: 29.1 µM [falling, single point]

SMILES: N#Cc1c(NC(=O)CCn2cnc3ccccc3c2=O)oc(-c2ccccc2)c1-c1ccccc1
- AC50 [1]: 14.6 µM [falling, partial curve]
- AC50 [2]: 9.2 µM [rising, partial curve, poor fit]

SMILES: O=C(CCSc1nnc2scc(-c3ccccc3)n12)Nc1nc(-c2ccccc2)ns1
- AC50 [1]: 35.5 µM [rising, partial curve, poor fit]

SMILES: COC(=O)C1=C(C)N(Cc2ccccc2)C(=NCCc2cccnc2)N[C@H]1c1ccc(Br)cc1
- AC50 [1]: 31.6 µM [falling, single point] and 16.4 µM [falling, partial curve, poor fit]

SMILES: Cc1oc(-c2ccc3c(c2)OCCO3)cc1C(=O)NC(CCC(=O)O)C(=O)O (stereo not given)
- AC50 [1]: 35.5 µM [falling, single point]

SMILES: CCNC(=O)c1ccc(C23CC4CC(CC(C4)C2)C3)o1
- AC50 [1]: 7.94 µM [rising, partial curve]

SMILES: NC(=O)C1CCN(C(=O)CSc2nc(O)cc(=O)[nH]2)CC1
- AC50 [1]: 14.1 µM [rising, partial curve, poor fit]

SMILES: CCOC(=O)c1ccc(NC2=CC(=O)C(=O)c3ccccc32)cc1
- AC50 [1]: 0.562 µM [falling, partial curve, poor fit]

SMILES: COc1ccc(-n2cccc2/C=C/[N+](=O)[O-])cc1
- AC50 [1]: 6.51 µM [falling, partial curve]
- AC50 [2]: 29.1 µM [rising, partial curve, poor fit]

SMILES: CC(/C=C1\SC(=O)N(CCCC(=O)O)C1=O)=C\c1ccccc1
- AC50 [1]: 0.146 µM [falling, full curve]

SMILES: CC(=O)c1nn(-c2cccc(Br)c2)cc1C(=O)c1ccc(Cl)cc1
- AC50 [1]: 18.4 µM [rising, single point]

SMILES: O=[N+]([O-])c1ccccc1S(=O)(=O)N1CCSCC1
- AC50 [1]: 2.91 µM [rising, single point]

SMILES: C/C(=N/NC(=O)c1ccco1)c1ccc(NC(=O)c2ccc(Br)o2)cc1
- AC50 [1]: 8.91 µM [falling, partial curve]

SMILES: Nn1c(-c2ccc(O)cc2)nnc1-c1ccc(O)cc1
- AC50 [1]: 35.5 µM [falling, single point]

SMILES: Cc1ccc(OCC(=O)O/N=C(\N)Cc2ccc([N+](=O)[O-])cc2)cc1C
- AC50 [1]: 6.31 µM [rising, single point]

SMILES: COc1ccccc1N1CCN(C(=O)c2ccc3nc(-c4ccco4)c(-c4ccco4)nc3c2)CC1
- AC50 [2]: 16.4 µM [rising, partial curve, poor fit]

SMILES: Cc1ccc(C(=O)c2c3ccccc3[n+]([O-])n2CCC(=O)O)cc1
- AC50 [1]: 14.6 µM [rising, partial curve, poor fit]

SMILES: O=C(COc1ccc(S(=O)(=O)N2CCCC2)cc1)Nc1ccc(F)cc1
- AC50 [1]: 2.24 µM [falling, full curve]

SMILES: CCCCOP(=O)(OCCCC)C1(NS(=O)(=O)c2ccccc2)C=CC(=O)c2ccccc21 (stereo not given)
- AC50 [1]: 35.5 µM [falling, single point]

SMILES: COc1ccccc1NC(=O)N1CCN(c2cccc(C(F)(F)F)c2)CC1
- AC50 [1]: 2.91 µM [rising, single point]

SMILES: COc1ccc(C(=O)Nc2ccc3c(c2)Cc2ccccc2-3)cc1
- AC50 [1]: 6.31 µM [rising, single point]

SMILES: COc1cc(NC(=O)C/C(C)=N/NC(=O)C(=O)NC2CCCCC2)c(OC)cc1Cl
- AC50 [1]: 11.2 µM [falling, single point]

SMILES: CCOC(=O)C1C(=O)N(C(=O)c2ccc(OC)cc2)CC1c1ccccc1 (stereo not given)
- AC50 [1]: 1.46 µM [falling, partial curve, poor fit]

SMILES: COc1cc(S(=O)(=O)Nc2ccc(C)cc2)ccc1N=Cc1c(C)[nH]n(-c2ccc(C)cc2)c1=O
- AC50 [2]: 20.6 µM [rising, partial curve, poor fit]

SMILES: COc1cc(NC(=O)COC(=O)CCc2cc(OC)c(OC)c(OC)c2)cc(OC)c1
- AC50 [1]: 3.98 µM [falling, full curve, poor fit]

SMILES: COc1cc(CNCCCN2CCOCC2)cc(Br)c1OCc1ccc(Cl)cc1
- AC50 [1]: 35.5 µM [falling, single point]

SMILES: CC(=O)N1CCc2c(sc(NC(=O)CCS(=O)(=O)c3ccccc3)c2C#N)C1
- AC50 [1]: 0.794 µM [rising, full curve, poor fit]

SMILES: COc1ccc(C2c3ccc4ccccc4c3Oc3ncn(CCO)c(=N)c32)cc1 (stereo not given)
- AC50 [1]: 35.5 µM [falling, single point]

SMILES: CC1(C)Cc2c(sc(NC(=O)Nc3ccccc3)c2C(N)=O)CO1
- AC50 [1]: 20 µM [falling, single point]

SMILES: O=C(OCc1csc(-c2ccccc2)n1)c1ccccc1O
- AC50 [1]: 11.2 µM [falling, partial curve, poor fit]

SMILES: N/C(=N\OCC(=O)Nc1ccccc1)c1nonc1N
- AC50 [1]: 29.1 µM [falling, single point]

SMILES: Cc1ccc(C(=O)c2ccc([N+](=O)[O-])cc2)c(C)c1
- AC50 [1]: 6.51 µM [rising, single point]

SMILES: N#Cc1sc2nc(N3CCCCC3)c3c(c2c1N)CCCC3
- AC50 [1]: 4.61 µM [rising, full curve, poor fit]
